PubChem BioAssay AID330 (DTP/NCI, 2004)
The list shows only some results of the screen, not a fair sample: it gathers tests that were run many times, whatever their T/C, doses with no T/C, and many T/C values between a quarter and a half above the control. Further doses and runs are listed elsewhere. T/C is the treated group as % of the vehicle group. Some doses have a count of surviving animals in place of a T/C: the source files T/C as zero there, which appears to mark a toxic dose or a test without result, not a measured value. Some survivor counts are full or nearly so, which does not show that the dose was tolerated: the source hardly ever lists a survival T/C far under the control, and the zero likely stands for such cases as well. Counts of survivors are from the toxicity check (mostly the fifth day) where no day follows; animals may have died later. Schedules are NCI's codes, taken here to give the interval after Q, in days (D) or hours (H), and the number of doses after X. Some doses were run more than once; their values stand side by side, smallest first. For survival time, the PubChem record calls one and a half times the control and up active, and a quarter to a half above the control has no call in these data; cut-offs in other NCI protocols can differ. Some T/C values are followed by the survivors on the day toxicity was checked, most often the fifth; where none is given, no animal had died by that day. Counts like (3×) count equal records among those shown.

Test system: P388 leukemia ip, CD2F1 mice, survival T/C
Experiment: NCI In Vivo Anticancer Drug Screen. Data for tumor model P388 Leukemia (intraperitoneal) in CD2F1 (CDF1) mice
Conditions: T/C endpoint: median survival time, higher T/C = longer survival
[1] = dose: 50.0 mg/kg/injection, schedule: Q01DX009 (ip), vehicle: Klucel (hydroxypropylcellulose) (HPC)
[2] = dose: 50.0 mg/kg/injection, schedule: Q04DX002 (ip), vehicle: Klucel (hydroxypropylcellulose) (HPC)
[3] = dose: 50.0 mg/kg/injection, schedule: Q04DX003 (ip), vehicle: Klucel (hydroxypropylcellulose) (HPC)
[4] = dose: 100.0 mg/kg/injection, schedule: Q01DX009 (ip), vehicle: Klucel (hydroxypropylcellulose) (HPC)
[5] = dose: 100.0 mg/kg/injection, schedule: Q04DX003 (ip), vehicle: Klucel (hydroxypropylcellulose) (HPC)
[6] = dose: 200.0 mg/kg/injection, schedule: Q01DX001 (ip), vehicle: Klucel (hydroxypropylcellulose) (HPC)
[7] = dose: 200.0 mg/kg/injection, schedule: Q01DX009 (ip), vehicle: Klucel (hydroxypropylcellulose) (HPC)
[8] = dose: 200.0 mg/kg/injection, schedule: Q04DX002 (ip), vehicle: Klucel (hydroxypropylcellulose) (HPC)
[9] = dose: 200.0 mg/kg/injection, schedule: Q04DX003 (ip), vehicle: Klucel (hydroxypropylcellulose) (HPC)
[10] = dose: 400.0 mg/kg/injection, schedule: Q01DX009 (ip), vehicle: Klucel (hydroxypropylcellulose) (HPC)
[11] = dose: 400.0 mg/kg/injection, schedule: Q04DX002 (ip), vehicle: Klucel (hydroxypropylcellulose) (HPC)
[12] = dose: 400.0 mg/kg/injection, schedule: Q04DX003 (ip), vehicle: Klucel (hydroxypropylcellulose) (HPC)

## C[C@]12C=CC(=O)C=C1CC[C@@H]1[C@@H]2C(=O)C[C@@]2(C)[C@H]1CC[C@]2(O)C(=O)CO
dose: 50.0 mg/kg/injection, schedule: Q01DX001 (ip), vehicle: Klucel (hydroxypropylcellulose) (HPC)
  T/C: 89, 97, 100 (4×), 101 (3×), 102 (2×), 103, 104 (3×), 105 (3×), 105 [5 of 6 alive], 106 (2×), 107 (2×), 109 (3×), 110, 113 (2×), 114, 125, 139 % of control
dose: 50.0 mg/kg/injection, schedule: Q01DX005 (ip), vehicle: Klucel (hydroxypropylcellulose) (HPC), evaluated on day 30
  T/C: 92, 93, 95, 97, 99, 100 (4×), 101, 103 (2×), 104, 105 (3×), 106 (3×), 107 (2×), 108 (2×), 109 (2×), 110, 111 (3×), 112, 112 [2 of 3 alive], 114, 115, 117, 119 % of control
dose: 50.0 mg/kg/injection, schedule: Q01DX005 (ip), vehicle: Klucel (hydroxypropylcellulose) (HPC), evaluated on day 60
  T/C: 99 % of control
dose: 50.0 mg/kg/injection, schedule: Q01DX005 (ip), vehicle: Klucel (hydroxypropylcellulose) (HPC)
  survivor count: 3 of 6
[1]
  T/C: 89, 93, 95 (3×), 96 (2×), 98, 99 (2×), 100, 101 (2×), 102, 103 (2×), 104 (2×), 105, 106 (2×), 107, 109, 110, 110 [5 of 6 alive], 112 (3×), 116, 120, 122 % of control (2×)
  survivor count: 3 of 3 and 6 of 6
[2]
  T/C: 91 (2×), 92, 94, 97 (2×), 98, 99 (2×), 100 (2×), 101 (2×), 102, 102 [2 of 3 alive], 103 (2×), 104, 105, 106, 106 [2 of 3 alive], 108 (3×), 109, 111 [5 of 6 alive], 112 [2 of 2 alive], 113, 114, 116, 117 (2×), 123, 126 % of control
  survivor count: 6 of 6
[3]
  T/C: 97 (2×), 98 (2×), 100 (5×), 103 (3×), 104 (5×), 105 (3×), 108 (2×), 109 (2×), 110 (3×), 112, 113, 114, 115 (2×), 116, 118 % of control
  survivor count: 3 of 3 and 6 of 6
dose: 100.0 mg/kg/injection, schedule: Q01DX001 (ip), vehicle: Klucel (hydroxypropylcellulose) (HPC)
  T/C: 86 (2×), 95, 98, 100 (3×), 101, 103 (2×), 104 (2×), 105, 106 (4×), 107 (2×), 109 (2×), 110 (3×), 112, 113 (3×), 114 (2×), 117, 125 % of control
dose: 100.0 mg/kg/injection, schedule: Q01DX005 (ip), vehicle: Klucel (hydroxypropylcellulose) (HPC), evaluated on day 30
  T/C: 87 (2×), 92, 93, 100 (3×), 101, 102 (2×), 103, 104, 105 (2×), 106, 107 (3×), 108, 109 (2×), 110, 110 [5 of 6 alive], 111 (3×), 112, 116, 117 (3×), 122 % of control
dose: 100.0 mg/kg/injection, schedule: Q01DX005 (ip), vehicle: Klucel (hydroxypropylcellulose) (HPC), evaluated on day 60
  T/C: 100 % of control
dose: 100.0 mg/kg/injection, schedule: Q01DX005 (ip), vehicle: Klucel (hydroxypropylcellulose) (HPC)
  survivor count: 0 of 6, 3 of 3, 6 of 6
[4]
  T/C: 89, 90, 91, 93 (2×), 94 (3×), 95, 96, 98, 98 [5 of 6 alive], 100 (2×), 101, 102 (2×), 104, 106 (2×), 108 (3×), 109, 111, 117 (2×), 118 % of control [5 of 6 alive]
  survivor count: 4 of 6, 5 of 6, 3 of 3, 6 of 6
dose: 100.0 mg/kg/injection, schedule: Q04DX002 (ip), vehicle: Klucel (hydroxypropylcellulose) (HPC)
  T/C: 88, 89, 91, 97 (2×), 98, 99, 100 (3×), 101, 102 (2×), 103 (4×), 104 (3×), 105, 106, 107 (2×), 108 (2×), 110 (2×), 113, 114 (2×), 115, 116, 118, 122 % of control
[5]
  T/C: 96, 99, 100 (4×), 101, 103 (3×), 104 (4×), 105 (4×), 106 (4×), 107 (2×), 109 (2×), 110, 111, 112, 113, 115, 116, 117, 118, 120 % of control
  survivor count: 3 of 3 and 6 of 6
[6]
  T/C: 92, 96, 98, 99 (3×), 100 (2×), 102, 103, 104 (3×), 105, 107 (2×), 109 (5×), 111, 112 (2×), 113 (3×), 114, 117, 119, 120 % of control
  survivor count: 6 of 6
dose: 200.0 mg/kg/injection, schedule: Q01DX005 (ip), vehicle: Klucel (hydroxypropylcellulose) (HPC), evaluated on day 30
  T/C: 86 [5 of 6 alive], 89, 92, 95, 97 (2×), 98 (2×), 102, 103, 106, 107 (3×), 108 (2×), 109, 110, 111 (4×), 112 (4×), 114, 115 % of control
dose: 200.0 mg/kg/injection, schedule: Q01DX005 (ip), vehicle: Klucel (hydroxypropylcellulose) (HPC), evaluated on day 60
  T/C: 104 % of control
dose: 200.0 mg/kg/injection, schedule: Q01DX005 (ip), vehicle: Klucel (hydroxypropylcellulose) (HPC)
  survivor count: 2 of 3, 4 of 6, 5 of 6, 3 of 3, 6 of 6
[7]
  T/C: 86 (3×), 89, 90, 90 [5 of 6 alive], 91, 95, 96 [2 of 3 alive], 96 [5 of 6 alive], 98, 100, 101, 103, 105, 106, 108 (3×), 109, 117 % of control (2×)
  survivor count: 2 of 3, 3 of 3, 6 of 6
[8]
  T/C: 87, 88 (2×), 94, 97, 100 (5×), 102 (2×), 103 (3×), 104, 105, 106 (2×), 107 (3×), 108 (4×), 111, 112, 115 (2×), 116 % of control (2×)
  survivor count: 3 of 3 and 6 of 6
[9]
  T/C: 89, 95 (2×), 96 (2×), 98, 99, 100 (4×), 103 (4×), 104 (2×), 106, 107, 109 (3×), 110 (2×), 111 (5×), 115, 117, 119, 120, 121, 125 % of control
  survivor count: 3 of 3 and 6 of 6
dose: 400.0 mg/kg/injection, schedule: Q01DX001 (ip), vehicle: Klucel (hydroxypropylcellulose) (HPC)
  T/C: 88, 97, 100, 101 (2×), 102, 103 (3×), 104 (3×), 105 (2×), 106, 107 (4×), 108, 109 (3×), 111, 112, 114 (2×), 115 (2×), 118, 123 % of control (2×)
dose: 400.0 mg/kg/injection, schedule: Q01DX005 (ip), vehicle: Klucel (hydroxypropylcellulose) (HPC), evaluated on day 30
  T/C: 86 (2×), 87, 89 [5 of 6 alive], 92, 93 (2×), 94, 97, 97 [5 of 6 alive], 99 (2×), 100 (3×), 102, 103, 104, 105 (2×), 106, 108, 110, 114, 120, 122, 125, 132 % of control
dose: 400.0 mg/kg/injection, schedule: Q01DX005 (ip), vehicle: Klucel (hydroxypropylcellulose) (HPC), evaluated on day 60
  T/C: 102 % of control
dose: 400.0 mg/kg/injection, schedule: Q01DX005 (ip), vehicle: Klucel (hydroxypropylcellulose) (HPC)
  survivor count: 3 of 6, 3 of 3, 6 of 6
[10]
  T/C: 86 (2×), 87 (2×), 87 [5 of 6 alive], 89, 90, 91 (2×), 92, 93, 98 (2×), 99, 100 (3×), 101, 103, 104, 122 % of control
  survivor count: 5 of 6, 3 of 3, 6 of 6
[11]
  T/C: 86 [4 of 6 alive], 87, 89, 94, 97, 99, 100 (3×), 102, 103 (5×), 104 (3×), 104 [2 of 3 alive], 106, 107 (2×), 108 (3×), 109, 111, 112, 116 [2 of 3 alive], 119, 120, 125, 126 % of control
  survivor count: 6 of 6
[12]
  T/C: 88, 90, 91, 93, 94, 97 (3×), 99 (2×), 100 (3×), 101 (2×), 102, 102 [5 of 6 alive], 103, 104 (2×), 105, 106, 107 (4×), 109, 111, 116, 117, 118, 119, 122, 128 % of control
  survivor count: 3 of 3 and 6 of 6
dose: 1000.0 mg/kg/injection, schedule: Q01DX001 (ip), vehicle: steroid suspending solution
  survivor count: 0 of 10
dose: 3200.0 mg/kg/injection, schedule: Q01DX005 (ip), vehicle: Klucel (hydroxypropylcellulose) (HPC)
  survivor count: 9 of 10
dose: 3200.0 mg/kg/injection, schedule: Q01DX005 (sc), vehicle: Klucel (hydroxypropylcellulose) (HPC)
  survivor count: 10 of 10
dose: 6400.0 mg/kg/injection, schedule: Q01DX005 (ip), vehicle: Klucel (hydroxypropylcellulose) (HPC)
  survivor count: 9 of 10

## [N-]=[N+]=NC(=O)c1ccccn1
dose: 200.0 mg/kg/injection, schedule: Q01DX009 (ip), vehicle: saline with Tween-80
  survivor count: 0 of 6

## O=[N+]([O-])c1csc([N+](=O)[O-])c1
dose: 75.0 mg/kg/injection, schedule: Q01DX009 (ip), vehicle: saline with Tween-80
  survivor count: 3 of 6
dose: 150.0 mg/kg/injection, schedule: Q01DX009 (ip), vehicle: saline with Tween-80
  survivor count: 3 of 6
dose: 300.0 mg/kg/injection, schedule: Q01DX009 (ip), vehicle: saline with Tween-80
  survivor count: 0 of 6

## CN1CCc2c(c3ccccc3c3ccccc23)C1
dose: 0.78 mg/kg/injection, schedule: Q01DX009 (ip), vehicle: Klucel (hydroxypropylcellulose) (HPC)
  survivor count: 6 of 6
dose: 3.12 mg/kg/injection, schedule: Q01DX009 (ip), vehicle: Klucel (hydroxypropylcellulose) (HPC)
  survivor count: 6 of 6
dose: 12.5 mg/kg/injection, schedule: Q01DX009 (ip), vehicle: Klucel (hydroxypropylcellulose) (HPC)
  survivor count: 6 of 6
dose: 44.0 mg/kg/injection, schedule: Q01DX009 (ip), vehicle: Klucel (hydroxypropylcellulose) (HPC)
  T/C: 138 % of control [5 of 6 alive]
dose: 66.0 mg/kg/injection, schedule: Q01DX009 (ip), vehicle: Klucel (hydroxypropylcellulose) (HPC)
  survivor count: 2 of 6
[4]
  survivor count: 0 of 6
dose: 150.0 mg/kg/injection, schedule: Q01DX009 (ip), vehicle: Klucel (hydroxypropylcellulose) (HPC)
  survivor count: 0 of 6
[7]
  survivor count: 0 of 6
[10]
  survivor count: 0 of 6
